# Reference: patent publication US20110306554A1, “PEPTIDE CAPABLE OF BINDING TO IMMUNOGLOBULIN” (priority 2009, published 2011)
# At least one peptide structure holds a part that was inferred or is arguable (an end, a ring closure or a residue). Non-standard residues stand in square brackets, D forms with d. Residues, ends and D or L forms follow the SMILES beside them.
# Test system: rat collagen-arthritis model
# Assay: Arthritis suppressing effects on rat collagen-arthritis model
# Assay type: in vivo, rats
# Method: A rat collagen-arthritis model was used to examine arthritis suppressing effects of a peptide, referred to as peptide R13.
# Female Lewis rats were primed with 500 μg of type II bovine-derived collagen and boosted with 100 μg of the same collagen at 7 and 14 days post priming, to induce collagen arthritis. Peptide R13, a scramble peptide (dYdPdYGdFdL), or methotrexate was administered once a day for a period of 25 consecutive days from 12 days after arthritis was fully developed, and arthritis suppressing effect was examined in terms of clinical score. Methotrexate was administered at a dose of 0.15 mg/kg as a control drug.
# The required amount was calculated for each peptide, based on the animal weight. Physiological saline was gradually added to prepare suspensions, to make concentrations of 100 and 10 mg/ml.
# The clinical score of each limb of the extremities in all cases was observed every third day from day 12, on which arthritis was developed, up to day 36, with day 0 being the day of priming with type II bovine-derived collagen. Observations were according to the following criteria, with the total score for the extremities being set to a maximum of 12.
# 0: not changed, 1: slight erythema and swelling at the ankle joint or on the dorsum or sole of foot, or erythema and swelling of not more than two toes, 2: erythema and swelling at the ankle joint or on the dorsum or sole of foot, or erythema and swelling of more than two toes, 3: swelling and erythema over the whole limb, 4: maximum swelling and erythema over the whole limb.
compound,measurement,setting,value
"CC(C)C[C@@H](NC(=O)CNC(=O)[C@H]1CCCN1)C(=O)N[C@H](Cc1ccc(O)cc1)C(=O)N[C@H](Cc1ccc(O)cc1)C(=O)N[C@H](Cc1ccccc1)C(=O)O [R13, dPGdLdYdYdF] (H-[dP]G[dL][dY][dY][dF]-OH)",suppression effect compared with methotrexate,"100 mg/kg once a day, methotrexate 0.15 mg/kg",suppression effect equal to or greater than that of the group receiving administration of methotrexate
same,arthritis suppressing effect (clinical score),"100 and 10 mg/kg once a day, 25 consecutive days from day 12",arthritis suppressing effects were observed
same,expression of TNF at sites of joint destruction (histological observations),"rat, in vivo",significant decrease in the expression of TNF
same,induction of osteoclasts (histological observations),"rat, in vivo",induction of osteoclasts was also suppressed
